Measurements as given in patent publication US5227288.
The exact form of at least one protein or probe is not confirmed. Tags and fusion partners may be left off the protein sequences shown.

Biological target: T1, Lambda integrase (Int) (Bacteriophage lambda) (UniProt P03700)
T1 sequence (looked up, limits assumed): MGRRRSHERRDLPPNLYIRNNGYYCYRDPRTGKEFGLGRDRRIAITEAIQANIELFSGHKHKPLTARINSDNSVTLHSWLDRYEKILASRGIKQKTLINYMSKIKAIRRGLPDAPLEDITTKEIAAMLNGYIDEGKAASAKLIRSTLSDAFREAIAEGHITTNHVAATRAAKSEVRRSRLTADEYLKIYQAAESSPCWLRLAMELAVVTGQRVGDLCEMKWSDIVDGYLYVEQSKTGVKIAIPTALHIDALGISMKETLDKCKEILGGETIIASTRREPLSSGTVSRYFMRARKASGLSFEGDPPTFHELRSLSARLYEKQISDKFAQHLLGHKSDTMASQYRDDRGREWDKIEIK
Experiment: activity in cells
Conditions: control without Int 100% blue, junction confirmed by sequencing, protein in cells

In the case of “AGCTCCCGGGGTCAAGTTAGTATAAAAAAGCAGGCATGG (double strand)”, the activity on this sequence (% white plaques (inversion)) (attB x attP inversion in Janus vector in E. coli JM101 p(Int) with IPTG) is reported as over 90.
With “GCGCTAATGCTCTGTTACAGGTCACTAATACCATCTAAGTAGTTGATTCATAGTGACTGCATATGTTGTGTTTTACAGTATTATGTAGTCTGTTTTTTATGCAAAATCTAATTTAATATATTGATATTTATATCATTTTACGTTTCTCGTTCAGCTTTTTTATACTAAGTTGGCATTATAAAAAAGCATTGCTTATCAATTTGTTGCAACGAACAGGTCACTATCAGTCAAAATAAAATCATTATTTGATTTCAATTTTGTCCCACTCCCTGCCTCTGTCATCACGATACTGTGATGCCATGGTGTCCGACTTATGCCCGAGAAGATGTTGAGCAAACTTATCGCTTATCTGCTTCTCATAGAGTCTTGCAGACAAACTGCGCAACTCGTGAAAGGTAGGCG (double strand) [attP site in Janus vector]” the activity on this sequence (% white plaques (inversion)) (attP x attB inversion in Janus vector in E. coli JM101 p(Int) with IPTG) was over 90.
